The results in this text go back to doi:10.1101/2021.03.25.437056.

No constants are given. Whether binding was seen depends on the method and setting. Binding seen in cells or lysates may run through a third protein. A result given as binding can be weak or reduced; the word gives no strength.

This assay addresses Homer1a (mouse (endogenous in inferior olive tissue)). The experiment in a line: co-IP.

B1: Homer1 (protein, UniProt Q9Z2Y3 1-366)
chain: MGEQPIFSTRAHVFQIDPNTKKNWVPTSKHAVTVSYFYDSTRNVYRIISLDGSKAIINSTITPNMTFTKTSQKFGQWADSRANTVYGLGFSSEHHLSKFAEKFQEFKEAARLAKEKSQEKMELTSTPSQESAGGDLQSPLTPESINGTDDERTPDVTQNSEPRAEPTQNALPFPHSAGDRTQALSHASSAISKHWEAELATLKGNNAKLTAALLESTANVKQWKQQLAAYQEEAERLHKRVTELECVSSQANAVHSHKTELNQTVQELEETLKVKEEEIERLKQEIDNARELQEQRDSLTQKLQEVEIRNKDLEGQLSDLEQRLEKSQNEQEAFRSNLKTLLEILDGKIFELTELRDNLAKLLECS
On to B1, for which the binding entry is given as “binds”.
